Our source for the binding values is PMC9018712.

In assay [1] the target is T1, enhanced green fluorescent protein (EGFP) fused to GRHL3 (UniProt Q5FWH3).
T1 sequence: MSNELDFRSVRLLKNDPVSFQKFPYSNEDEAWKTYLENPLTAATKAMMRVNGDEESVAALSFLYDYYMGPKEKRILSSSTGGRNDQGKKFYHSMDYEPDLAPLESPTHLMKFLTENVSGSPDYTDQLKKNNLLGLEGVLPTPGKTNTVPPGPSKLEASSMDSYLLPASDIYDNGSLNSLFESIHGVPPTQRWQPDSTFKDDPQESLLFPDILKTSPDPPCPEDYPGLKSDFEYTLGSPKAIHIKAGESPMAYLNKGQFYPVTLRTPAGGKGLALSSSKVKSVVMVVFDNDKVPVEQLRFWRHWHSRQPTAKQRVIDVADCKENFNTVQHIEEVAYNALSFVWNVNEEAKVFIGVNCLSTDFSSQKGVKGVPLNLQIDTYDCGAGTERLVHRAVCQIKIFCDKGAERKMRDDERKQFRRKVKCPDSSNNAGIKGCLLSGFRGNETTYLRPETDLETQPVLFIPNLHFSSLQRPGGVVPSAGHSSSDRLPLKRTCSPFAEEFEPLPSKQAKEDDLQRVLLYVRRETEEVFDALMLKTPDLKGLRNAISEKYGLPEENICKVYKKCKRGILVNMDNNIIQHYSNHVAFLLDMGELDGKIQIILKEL
The experiment in a line: co-IP; visible immunoprecipitation (VIP) assay: extracts of co-transfected HEK293T cells, nanobody beads that bind EGFP, RFP fluorescence on the beads observed.

Assay [2] addresses T2, GRHL3, endogenous in MBT2 cells and mouse eyelid periderm cells (mouse (endogenous in MBT2 cells and mouse eyelid)) (UniProt Q5FWH3).
T2 sequence: T1 sequence
The experiment in a line: proximity ligation; Duolink in situ PLA at endogenous protein levels in MBT2 cells and mouse eyelid tissue; mouse anti-GRHL3 and rabbit anti-USP39; distances <40 nm.

For assay [3], the target named is T3, Grainyhead-like 3 (GRHL3), endogenous in MCF7 cells (human (endogenous in MCF7)) (UniProt Q8TE85).
T3 sequence: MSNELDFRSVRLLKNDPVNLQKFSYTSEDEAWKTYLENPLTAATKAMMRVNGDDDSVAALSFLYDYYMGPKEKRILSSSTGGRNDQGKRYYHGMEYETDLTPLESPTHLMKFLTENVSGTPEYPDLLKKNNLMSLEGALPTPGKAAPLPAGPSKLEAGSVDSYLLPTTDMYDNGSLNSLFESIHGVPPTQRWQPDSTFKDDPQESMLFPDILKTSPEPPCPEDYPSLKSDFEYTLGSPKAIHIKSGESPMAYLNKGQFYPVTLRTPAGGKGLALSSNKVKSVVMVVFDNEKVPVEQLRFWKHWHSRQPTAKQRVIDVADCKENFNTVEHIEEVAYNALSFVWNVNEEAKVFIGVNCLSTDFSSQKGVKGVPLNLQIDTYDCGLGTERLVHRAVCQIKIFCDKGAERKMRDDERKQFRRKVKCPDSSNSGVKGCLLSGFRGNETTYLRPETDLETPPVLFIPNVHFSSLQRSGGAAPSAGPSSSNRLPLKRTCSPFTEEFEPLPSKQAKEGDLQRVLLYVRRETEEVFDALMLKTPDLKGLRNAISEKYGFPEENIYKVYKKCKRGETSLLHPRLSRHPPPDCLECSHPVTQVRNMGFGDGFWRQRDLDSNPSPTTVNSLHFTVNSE
In words: co-IP; MCF7 cell extracts, endogenous proteins, immunoprecipitation with an antibody against GRHL3.

These are yes or no findings as the source states them, for the method shown. Binding seen in cells or lysates may run through a third protein. Some results given as binding are weak or reduced against the parent protein; the word gives no strength. For part of these data: Where a sequence is shown, tags or fusion partners need not be part of it.

B1: RFP fused to USP39 (protein, UniProt Q3TIX9 1-564)
chain: MSSRSKRQSHGSTRGKRESESRGSSGRIKKERDREKEPEAASSRGSPVRVKREAEPAAREVPAPALPVVRVKREREADEDSEPEREVRAKNGRVDSEDRRSRHCPYLDTINRSVLDFDFEKLCSISLSHINAYACLVCGKYFQGRGLKSHAYIHSVQFSHHVFLNLHTLKFYCLPDNYEIIDSSLEDITYVLKPTFTKQQIANLDKQAKLSRAYDGTTYLPGIVGLNNIKANDYANAVLQALSNVPPLRNYFLEEDNYKNIKRPPGDIMFLLVQRFGELMRKLWNPRNFKAHVSPHEMLQAVVLCSKKTFQITKQGDGVDFLSWFLNALHSALGGTKKKKKTIVNDVFQGSMRIFTKKLPHPDLPAEEKEQLLHNDEYQETMVESTFMYLTLDLPTAPLYKDEKEQLIIPQVPLFNILAKFNGITEKEYKTYKENFLKRFQLTKLPPYLIFCIKRFTKNNFFVEKNPTIVNFPITNVDLREYLSEEVQAVHKNTTYDLIANIVHDGKPSEGSYRIHVLHHGTGKWYELQDLQVTDILPQMITLSEAYIQIWKRRDNDETNQQGA
Regarding B1, the binding entry in assay [1] was “binds”.

B2: USP39, endogenous in MBT2 cells and mouse eyelid periderm cells (protein, UniProt Q3TIX9 1-564)
chain: B1 chain
B2: the binding result in assay [2] was “binds”.

B3: ubiquitin-specific protease 39 (USP39), endogenous in MCF7 cells (protein, UniProt Q53GS9 1-565)
chain: MSGRSKRESRGSTRGKRESESRGSSGRVKRERDREREPEAASSRGSPVRVKREFEPASAREAPASVVPFVRVKREREVDEDSEPEREVRAKNGRVDSEDRRSRHCPYLDTINRSVLDFDFEKLCSISLSHINAYACLVCGKYFQGRGLKSHAYIHSVQFSHHVFLNLHTLKFYCLPDNYEIIDSSLEDITYVLKPTFTKQQIANLDKQAKLSRAYDGTTYLPGIVGLNNIKANDYANAVLQALSNVPPLRNYFLEEDNYKNIKRPPGDIMFLLVQRFGELMRKLWNPRNFKAHVSPHEMLQAVVLCSKKTFQITKQGDGVDFLSWFLNALHSALGGTKKKKKTIVTDVFQGSMRIFTKKLPHPDLPAEEKEQLLHNDEYQETMVESTFMYLTLDLPTAPLYKDEKEQLIIPQVPLFNILAKFNGITEKEYKTYKENFLKRFQLTKLPPYLIFCIKRFTKNNFFVEKNPTIVNFPITNVDLREYLSEEVQAVHKNTTYDLIANIVHDGKPSEGSYRIHVLHHGTGKWYELQDLQVTDILPQMITLSEAYIQIWKRRDNDETNQQGA
As for B3, the binding result in assay [3] is “binds”.
